No constants are given. Whether binding was seen depends on the method and setting. Some binding calls cover weakened binding; strength is not graded here.
Biological target: T1, human collagen type III (Sigma) (human, UniProt P02461 154-1221, limits assumed)
T1 construct: Purified natural collagen immobilised on the chip (331 RU); also called Collagen type III (human)
T1 sequence (looked up): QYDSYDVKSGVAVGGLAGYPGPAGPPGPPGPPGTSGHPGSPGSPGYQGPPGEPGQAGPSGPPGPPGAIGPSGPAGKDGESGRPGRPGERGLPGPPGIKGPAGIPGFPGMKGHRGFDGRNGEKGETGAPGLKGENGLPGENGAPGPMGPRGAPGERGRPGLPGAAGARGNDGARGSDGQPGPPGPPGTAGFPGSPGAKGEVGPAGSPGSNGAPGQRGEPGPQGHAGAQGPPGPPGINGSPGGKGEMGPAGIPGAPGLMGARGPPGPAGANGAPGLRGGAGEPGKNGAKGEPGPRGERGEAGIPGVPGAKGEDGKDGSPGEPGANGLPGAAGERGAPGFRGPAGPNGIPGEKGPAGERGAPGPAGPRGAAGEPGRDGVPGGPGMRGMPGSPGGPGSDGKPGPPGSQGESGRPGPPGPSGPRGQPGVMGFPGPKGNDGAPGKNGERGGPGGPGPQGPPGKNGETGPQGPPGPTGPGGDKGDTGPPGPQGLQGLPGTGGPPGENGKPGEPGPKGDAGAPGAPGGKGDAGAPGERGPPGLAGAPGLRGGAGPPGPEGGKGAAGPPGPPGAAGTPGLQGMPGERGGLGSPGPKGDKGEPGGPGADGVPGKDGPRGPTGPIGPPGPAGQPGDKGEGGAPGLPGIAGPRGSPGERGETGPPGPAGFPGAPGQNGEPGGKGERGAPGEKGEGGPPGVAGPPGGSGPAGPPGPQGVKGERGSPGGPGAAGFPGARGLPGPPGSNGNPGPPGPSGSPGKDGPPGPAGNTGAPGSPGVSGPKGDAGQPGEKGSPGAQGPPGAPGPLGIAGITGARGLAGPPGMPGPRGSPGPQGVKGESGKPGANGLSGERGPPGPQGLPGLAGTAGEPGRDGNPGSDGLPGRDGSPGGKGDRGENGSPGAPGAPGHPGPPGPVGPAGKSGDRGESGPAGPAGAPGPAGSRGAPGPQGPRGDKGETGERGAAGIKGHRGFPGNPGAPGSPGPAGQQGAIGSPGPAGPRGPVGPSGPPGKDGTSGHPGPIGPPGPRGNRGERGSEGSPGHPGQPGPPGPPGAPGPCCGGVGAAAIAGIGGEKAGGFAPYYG
Test: SPR, BIAcore 3000, collagen type III immobilised, GPVI in solution, 25 C
Description: Protein interactions were identified and characterized by SPR technology using the BIAcore® 3000 instrument (BIAcore®, Freiburg, Germany) and methodology (Johnsson and Lindqvist, 1992; Johnsson et al., 1991). Coupling reagents were used according to protocols developed by the supplier. Coupling to the CM 5 sensor chip was done via activated carboxylate groups to free amine groups of human collagen type III (Sigma®). The pH-scouting and the coupling chemistry was performed under standard conditions (Johnsson and Lindqvist, 1992; Johnsson et al., 1991). For coupling the collagen was diluted to 0.125 µg/ml into 10 mM acetate buffer pH 4.5, resulting in 331 RU immobilized material.
For the binding experiments purified recombinant glycoprotein VI was used. The protein was diluted into 20 mM Hepes, pH 7.4, 150 mM NaCl, 5 mM EDTA, 0.005% Tween® 20. All binding experiments were performed at 25° C. and performed in duplicates.

binding: binds
B1: purified recombinant glycoprotein VI (receptor, UniProt Q9HCN6 21-269, looked up)
chain: QSGPLPKPSLQALPSSLVPLEKPVTLRCQGPPGVDLYRLEKLSSSRYQDQAVLFIPAMKRSLAGRYRCSYQNGSLWSLPSDQLELVATGVFAKPSLSAQPGPAVSSGGDVTLQCQTRYGFDQFALYKEGDPAPYKNPERWYRASFPIITVTAAHSGTYRCYSFSSRDPYLWSAPSDPLELVVTGTSVTPSRLPTEPPSPVAEFSEATAELTVSFTNEVFTTETSRSITASPKESDSPAGPARQYYTKGN
notes: also called GPVI; purified soluble GPVI

Reference: patent US7507412B2, “Glycoprotein VI fusion proteins” (Merck Patent GmbH, priority 2001, dated 2009)
